Assay results reported in US20130203602A1, “SUPPORTED BIOLOGICALLY ACTIVE COMPOUNDS” (Danmarks Tekniske Universitet, priority 2010, published 2013).
For at least one compound, name, drawing or mass did not settle the structure.

Experiment: Thermal stability determination by thermogravimetric analysis (TGA)
Type: physicochemical
Details: not supported/neat; TGA 25-800° C., 5° C./min, under air

CCCCC(CC)COC(=O)CC(C(=O)OCC(CC)CCCC)S(=O)(=O)O (stereo not shown) [Dioctylsulfosuccinic Acid [4], Dioctylsulfosuccinic Acid] showed an Inflection point of 162 °C.
